Results taken from the supplement of paper PMC10338343.
± gives the standard deviation. Only a part is listed here, and it is no random draw. The uncertainty is large for many entries.

Legend:
[1] = tested on: MILI (PIWIL2) piRISC loaded with piRNA #1 (26 nt); assay: pre-steady-state target cleavage rate (min^-1); higher = faster piRNA-guided slicing of the target; conditions: guide: piRNA #1 5'p-UGAGGUAGUAGGUUGUAUAGUAUCCA; auxiliary factor: 500 nM mouse GTSF1
Method in brief: (§1)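 Sequencing of uncleaved targets, normalised to depth and to weakly complementary targets, was the readout of this Cleave-'n-Seq assay. A transcribed, DNA-blocked target RNA library (0.1 nM) was mixed with 1 nM active affinity-purified piRISC carrying one synthetic guide, with or without 500 nM GTSF1 partner protein, in HEPES–potassium acetate buffer at 33 °C for 0–8 or 0–960 min. Three trials were pooled, k3 was capped at 0.0001 min^-1, and a burst-and-steady-state fit gave the pre-steady-state cleavage rate.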

[2] = tested on: MIWI (PIWIL1) piRISC loaded with piRNA #1 (30 nt); assay: as above; conditions: guide: piRNA #1 5'p-UGAGGUAGUAGGUUGUAUAGUAUCCAGAGG; auxiliary factor: 500 nM mouse GTSF1
Method in brief: as §1

[3] = tested on: EfPiwi piRISC loaded with piRNA #1 (26 nt); assay: pre-steady-state target cleavage rate (min^-1); guide: piRNA #1 5'p-UGAGGUAGUAGGUUGUAUAGUAUCCA; MIWI and MILI are mouse PIWI proteins and EfPiwi is from a freshwater sponge; tags in brackets are library labels; higher = faster piRNA-guided slicing of the target; conditions: auxiliary factor: 500 nM Ephydatia muelleri Gtsf1
Method in brief: as §1

Row | Sequence | pre-steady-state target cleavage rate [1] | pre-steady-state target cleavage rate [2] | pre-steady-state target cleavage rate [3]
1 | GGAGACCUAUGAUAACAACGCUACUACCUCA | 0.000517 ± 0.01 | 0.000142 ± 0.018 | 0.000972 ± 0.0088
2 | GGAGAGGAAACUAUACAUCCUACUACCUCA | 0.302 ± 0.029 | 1.19 ± 0.074 | 0.00711 ± 0.0026
3 | GGAGACCUAUGAUAAGAACCUACUACGUCA | 0.000108 ± 0.022 | 0.000124 ± 0.015 | 0.000101 ± 0.026
4 | GGAGACCUAUGUAUACAACACUACUACCUCA | 0.000625 ± 0.0085 | 0.000129 ± 0.022 | 0.00125 ± 0.0069
5 | GGAGAGGAUACUAUACAACGAUCUACCUCA | 0.000672 ± 0.01 | 0.000875 ± 0.0092 | 0.00102 ± 0.0033
6 | GGAGUGGAUACUAUACAAACCUACUACCUCA | 0.00274 ± 0.0034 | 0.00188 ± 0.0044 | 0.0643 ± 0.023
7 | GGAGACCUAUGAUAUCAACCUACUACCUUA | 0.00133 ± 0.0052 | 0.000229 ± 0.012 | 0.000693 ± 0.008
8 | GGAGACCUAUGAUAUGUUCUACUACCUCA | 0.00012 ± 0.023 | 0.00044 ± 0.011 | 0.000659 ± 0.0069
9 | GGAGACCUAUGAUAUGUUGGUUCUACCACA | 0.000584 ± 0.011 | 0.00122 ± 0.0058 | 0.000713 ± 0.0071
10 | GGAGACCUAUGAUAUGUUCCAUGUACCUCA | 0.000685 ± 0.01 | 0.00139 ± 0.0054 | 0.00114 ± 0.0035
11 | GGAGACCUAUGAUAACAACCUAACUACCUCA | 0.00282 ± 0.0031 | 0.00103 ± 0.0036 | 0.00064 ± 0.011
12 | GGAGACCUAUGAUAUGUACCUGCUACCUCA | 0.000108 ± 0.022 | 0.00013 ± 0.014 | 0.000296 ± 0.014
13 | GGAGACCUAUGAAUACAACGCUACUACCUCA | 0.000194 ± 0.017 | 0.00018 ± 0.01 | 0.000441 ± 0.012
14 | GGAGACCUAUGAUAUGUUGCUACUACCAUCA | 0.000603 ± 0.01 | 0.00102 ± 0.0056 | 0.000309 ± 0.0077
15 | GGAGACCUAUGAUAUCAACGUACUUCCUCA | 0.000205 ± 0.015 | 0.000354 ± 0.0093 | 0.00101 ± 0.0074
16 | GGAGACCUAUGAUAUGUUGGUAUUACCUCA | 0.000237 ± 0.017 | 0.000358 ± 0.014 | 0.000934 ± 0.0064
17 | GGAGACCUAUGAUUACAACCCACUACCUCA | 0.00245 ± 0.0035 | 0.00121 ± 0.0035 | 0.00187 ± 0.0077
18 | GGAGACCUAUCUAUACAACCUUCUACCACA | 0.00592 ± 0.0023 | 0.136 ± 0.015 | 0.00131 ± 0.0058
19 | GGAGACCUAUGAUAUCAACGUACUACCUCA | 0.00159 ± 0.0028 | 0.000234 ± 0.0081 | 0.000346 ± 0.0066
20 | GGAGAGGAUACUAUACAACCUAGAUCCUCA | 0.000399 ± 0.014 | 0.00201 ± 0.0045 | 0.00241 ± 0.0021

Limited to pre-steady-state target cleavage rate [3] (2 entries from above):

| Row | Sequence | pre-steady-state target cleavage rate [3] |
| --- | --- | --- |
| 17 | GGAGACCUAUGAUUACAACCCACUACCUCA | 0.00187 ± 0.0077 |
| 19 | GGAGACCUAUGAUAUCAACGUACUACCUCA | 0.000346 ± 0.0066 |
